The list shows a part of the results.

Drawing on article PMC7819943, “Rice protein-binding microarrays: a tool to detect cis-acting elements near promoter regions in rice”, this text covers binding signal for 42 sequences.

In the experiment the target is T1, OsSMF1 (Oryza sativa, UniProt Q6ZLB0 1-436).
T1 sequence: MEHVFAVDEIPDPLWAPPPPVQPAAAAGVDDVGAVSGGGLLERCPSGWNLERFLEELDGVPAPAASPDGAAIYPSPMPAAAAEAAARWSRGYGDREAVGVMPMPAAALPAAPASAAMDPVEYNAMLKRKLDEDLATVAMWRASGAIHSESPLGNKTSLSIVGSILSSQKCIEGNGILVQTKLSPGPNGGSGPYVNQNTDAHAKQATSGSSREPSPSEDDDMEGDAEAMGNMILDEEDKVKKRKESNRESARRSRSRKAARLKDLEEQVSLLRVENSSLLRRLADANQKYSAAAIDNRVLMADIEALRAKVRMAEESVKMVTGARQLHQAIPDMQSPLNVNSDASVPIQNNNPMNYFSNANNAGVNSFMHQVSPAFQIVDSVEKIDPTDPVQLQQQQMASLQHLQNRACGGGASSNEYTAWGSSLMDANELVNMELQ
As to the kind of experiment: protein-binding microarray (RPBM); PBS, 2% BSA, 51.3 ng/ul salmon testes DNA, 50 uM zinc acetate, 200 nM TF, 25 C, 1 h; high values mean tight binding. The settings on record: protein: recombinant; tags: N-terminal polyhistidine and DsRed monomer fusion (pET32a); chain copies: 2; label: CyDye5-dUTP incorporated in the synthesized complementary strand; 3' TTTTT single-stranded linker to array surface; dsDNA, one strand shown. In short, it runs like this:
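A custom Agilent array was converted to double-stranded form by primer extension with Cy5-dUTP and blocked with 2% BSA. Protein at 200 nM in PBS with 2% BSA, salmon testes DNA and 50 µM zinc acetate was applied for 1 h at 25 °C, followed by washing. The proteins were polyhistidine–DsRed N-terminal fusions of transcription factors, expressed in E. coli BL21-CodonPlus and Ni–NTA-purified. The binding signal is per-feature fluorescence intensity (arbitrary units) from an Axon 4000B scanner.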
Take “GTTTGGTTTATTTCCCGAACAAGGGAAACAACGGGGCGGGCGGAGTCACCTAGTGCAG”: the binding signal is 3250 fluorescence intensity (a.u.). In the case of “GTAACTTGTCTATCTGTTTTGCTTTCTCAGCTAAATATCCCGGAGTCACCTAGTGCAG” it was 3300 fluorescence intensity (a.u.); in that of “CGGTAGATTTTGAACTGACGAAGTCCAGAAAGCAAGCAAGCGGAGTCACCTAGTGCAG”, 3970 fluorescence intensity (a.u.).

Regarding “ATTAGGTGGACTCCTCGTCGGCGGCACGTAGTCTTCGTCCCGGAGTCACCTAGTGCAG”, the binding signal was 4680 fluorescence intensity (a.u.). The figure for “TGCTGCCGCGATTTGAGCGAGTGAATGTGACACTGGCTGACGGAGTCACCTAGTGCAG” is 4410 fluorescence intensity (a.u.); for “GTATTGGAGCTCTACAGTTCGGTCTACTCCTCTCTGTTGCCGGAGTCACCTAGTGCAG” it is 27500 fluorescence intensity (a.u.); for “AGGCATATGGCGGTGGCATACACAACACAAATGTTCCTGGCGGAGTCACCTAGTGCAG” it is 4000 fluorescence intensity (a.u.). Turning to “ATCATCTATTAGTACCATCTATTAATTACGTGTACAAATTCGGAGTCACCTAGTGCAG”, the binding signal was 8340 fluorescence intensity (a.u.). In the case of “CCCTTCTCCACAACGCCAGCAGTCGCGGCCGTCTGCGCTTCGGAGTCACCTAGTGCAG”, the binding signal was 3640 fluorescence intensity (a.u.). The figure for “TGTGTGCTGACAGTTCATTTTCCTTGTGTTGTGCTGTTGTCGGAGTCACCTAGTGCAG” is 4970 fluorescence intensity (a.u.). Take “CTTTCCACTAGCGGCCCTCTAGAAATATTACATGGCAAGTCGGAGTCACCTAGTGCAG”: the binding signal was 4150 fluorescence intensity (a.u.). The figure for “ATCCCTTGCCTTGGCCGGTGGCCGCTACCGCTACGCAGCTCGGAGTCACCTAGTGCAG” is 3940 fluorescence intensity (a.u.). In the case of “ATCAGCAAGCTTAGAAGAAGTAAGGCGTCACACGCAAGCACGGAGTCACCTAGTGCAG” it was 6430 fluorescence intensity (a.u.); in that of “ACGAATCGGAAATGGTCAGTAGACTATAAATATACGTGTCCGGAGTCACCTAGTGCAG”, 3270 fluorescence intensity (a.u.); in that of “AGCGCCAATGGGACTGGCGCTGACATTGTGCCACCGTGGCCGGAGTCACCTAGTGCAG”, 6590 fluorescence intensity (a.u.). In the case of “CGTCAGTTGCGATTCGTTTGGACGCCGTCAGCAATGATTGCGGAGTCACCTAGTGCAG” it was 3260 fluorescence intensity (a.u.). Consider “TCGTATTAGCCCTGACCTGTCATCCGCGACAGGCTGCCTGCGGAGTCACCTAGTGCAG”, for which the binding signal was 4960 fluorescence intensity (a.u.). The figure for “GTCATTAAACGGAAACTAATCCGTTACATGACGTGGGCCCCGGAGTCACCTAGTGCAG” is 14000 fluorescence intensity (a.u.); for “GGCCACCGTGCGTCTGCCGCGTCGGCACCCGTGCAGGGTTCGGAGTCACCTAGTGCAG” it is 8060 fluorescence intensity (a.u.).

In the case of “CACCTCCTCCCTCGCCGCCGCCGCCGCCGCTGACTCCCACCGGAGTCACCTAGTGCAG”, the binding signal is 4820 fluorescence intensity (a.u.). In the case of “AATCCACTATTCACAGGATGAGAATCCAGAGCTGAAGCTTCGGAGTCACCTAGTGCAG” it was 14400 fluorescence intensity (a.u.). For the sequence “ACAACTGAAAAGGATGAGGCGCTTACAACCAAAATGCAAGCGGAGTCACCTAGTGCAG”, the binding signal is 7450 fluorescence intensity (a.u.).

Consider “CCCTCTTTCCCATCTGTGTCACCTTCCACCGCTGTTCAAACGGAGTCACCTAGTGCAG”, for which the binding signal is 4990 fluorescence intensity (a.u.). In the case of “GCCCGGTCAGTGGTGACTCAGCGAGATGGGCCCGTTTTGTCGGAGTCACCTAGTGCAG” it was 6830 fluorescence intensity (a.u.). The figure for “CTAATATATTGACGTGTAATTCTTTTGTGTGTTTGTGAAACGGAGTCACCTAGTGCAG” is 6530 fluorescence intensity (a.u.). In the case of “CACGGCATACGCACCGCACCGCCTTAATTATACTACTAATCGGAGTCACCTAGTGCAG” it was 12500 fluorescence intensity (a.u.); in that of “CGCCAGCCACCTCCGGCGCCGTTCGCCAGCCACCACGCGCCGGAGTCACCTAGTGCAG”, 37900 fluorescence intensity (a.u.). On to “GTCGTGTCTGACGTCGTATACTCGTGTGGTGTATTCATATCGGAGTCACCTAGTGCAG”, for which the binding signal was 6180 fluorescence intensity (a.u.). In the case of “GCGAATAAGATGATGGACGCGTTCGTCAACAAGCCACGGTCGGAGTCACCTAGTGCAG” it was 3380 fluorescence intensity (a.u.).

For “CCCACACAGATCAGGGCCAGCTTACCGTCGGTGCAGGAAACGGAGTCACCTAGTGCAG”, the binding signal was 3340 fluorescence intensity (a.u.). In the case of “CGTCCGCTGTGGTGACGCTGACGGCCGCGTGACATGGCTTCGGAGTCACCTAGTGCAG”, the binding signal is 12500 fluorescence intensity (a.u.). “AATACGATTAACGTGCTAAGATGACGTCAGCTGAGGATAGCGGAGTCACCTAGTGCAG”: the binding signal was 10400 fluorescence intensity (a.u.). In the case of “TATTATACAAATTACCACATCACATTTATATTCGTACTATCGGAGTCACCTAGTGCAG” it was 25900 fluorescence intensity (a.u.); in that of “AATATAGCTAATTATTAGCTCTTAAAATTAACACATCATGCGGAGTCACCTAGTGCAG”, 3820 fluorescence intensity (a.u.). The figure for “TTCCGCACCATCCATACAGACTGGCGTGTAGGCCCCACCTCGGAGTCACCTAGTGCAG” is 3530 fluorescence intensity (a.u.); for “TGTGATCCATGCCTCCAGCAGGACATCATGATTAGCATGTCGGAGTCACCTAGTGCAG” it is 3850 fluorescence intensity (a.u.); for “AGGTGGTGAAGTGGAGTGGAGTGGAGAGTATCTTCTTCTTCGGAGTCACCTAGTGCAG” it is 3340 fluorescence intensity (a.u.). As for “CCACCGCTGACGCCATCACGTCGTCAGTGATAACGGCGACCGGAGTCACCTAGTGCAG”, the binding signal was 6440 fluorescence intensity (a.u.). The figure for “CCCACCCGACAGTGACACTCCATCATCATGACATCACGAGCGGAGTCACCTAGTGCAG” is 10700 fluorescence intensity (a.u.). In the case of “ATGACAGCATGCACCGATCGCTTCCATAGACGACGTCACACGGAGTCACCTAGTGCAG” it was 3280 fluorescence intensity (a.u.). The figure for “GCACTTCCTATTTAAGCACCGCCGCGGGTGACACCGTCCCCGGAGTCACCTAGTGCAG” is 3330 fluorescence intensity (a.u.). “GACTTGTTTTGGGACATCGATTTTCGGCCTGACACATAGTCGGAGTCACCTAGTGCAG”: the binding signal is 3800 fluorescence intensity (a.u.).
